Measured values taken from the supplement of paper PMC10849652.
The list shows a part of the results.

Amino acid sequences for entries named in this document (tags omitted). A change or cut given only in a name is not applied to a line headed by its entry.
UniProt Q96AT1: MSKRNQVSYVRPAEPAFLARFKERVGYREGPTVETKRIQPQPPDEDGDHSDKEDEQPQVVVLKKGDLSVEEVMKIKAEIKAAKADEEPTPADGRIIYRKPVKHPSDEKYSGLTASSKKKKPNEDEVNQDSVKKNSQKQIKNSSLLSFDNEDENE
UniProt Q96EK5: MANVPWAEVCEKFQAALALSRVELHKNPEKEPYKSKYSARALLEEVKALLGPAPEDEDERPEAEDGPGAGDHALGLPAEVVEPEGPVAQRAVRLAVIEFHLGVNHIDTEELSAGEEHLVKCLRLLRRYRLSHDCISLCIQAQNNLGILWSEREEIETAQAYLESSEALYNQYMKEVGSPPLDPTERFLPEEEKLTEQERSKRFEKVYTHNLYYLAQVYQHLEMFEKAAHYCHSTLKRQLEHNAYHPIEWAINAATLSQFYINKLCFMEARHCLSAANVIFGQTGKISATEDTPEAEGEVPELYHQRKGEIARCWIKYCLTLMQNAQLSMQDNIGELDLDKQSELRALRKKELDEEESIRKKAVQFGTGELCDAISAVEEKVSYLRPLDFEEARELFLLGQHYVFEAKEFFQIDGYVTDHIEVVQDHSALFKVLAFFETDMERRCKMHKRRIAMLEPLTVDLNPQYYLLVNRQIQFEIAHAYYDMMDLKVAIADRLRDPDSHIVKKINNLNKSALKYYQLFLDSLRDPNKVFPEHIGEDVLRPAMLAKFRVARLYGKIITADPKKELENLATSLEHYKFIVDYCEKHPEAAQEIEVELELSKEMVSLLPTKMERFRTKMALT
UniProt Q9BY66, whole entry, looked up: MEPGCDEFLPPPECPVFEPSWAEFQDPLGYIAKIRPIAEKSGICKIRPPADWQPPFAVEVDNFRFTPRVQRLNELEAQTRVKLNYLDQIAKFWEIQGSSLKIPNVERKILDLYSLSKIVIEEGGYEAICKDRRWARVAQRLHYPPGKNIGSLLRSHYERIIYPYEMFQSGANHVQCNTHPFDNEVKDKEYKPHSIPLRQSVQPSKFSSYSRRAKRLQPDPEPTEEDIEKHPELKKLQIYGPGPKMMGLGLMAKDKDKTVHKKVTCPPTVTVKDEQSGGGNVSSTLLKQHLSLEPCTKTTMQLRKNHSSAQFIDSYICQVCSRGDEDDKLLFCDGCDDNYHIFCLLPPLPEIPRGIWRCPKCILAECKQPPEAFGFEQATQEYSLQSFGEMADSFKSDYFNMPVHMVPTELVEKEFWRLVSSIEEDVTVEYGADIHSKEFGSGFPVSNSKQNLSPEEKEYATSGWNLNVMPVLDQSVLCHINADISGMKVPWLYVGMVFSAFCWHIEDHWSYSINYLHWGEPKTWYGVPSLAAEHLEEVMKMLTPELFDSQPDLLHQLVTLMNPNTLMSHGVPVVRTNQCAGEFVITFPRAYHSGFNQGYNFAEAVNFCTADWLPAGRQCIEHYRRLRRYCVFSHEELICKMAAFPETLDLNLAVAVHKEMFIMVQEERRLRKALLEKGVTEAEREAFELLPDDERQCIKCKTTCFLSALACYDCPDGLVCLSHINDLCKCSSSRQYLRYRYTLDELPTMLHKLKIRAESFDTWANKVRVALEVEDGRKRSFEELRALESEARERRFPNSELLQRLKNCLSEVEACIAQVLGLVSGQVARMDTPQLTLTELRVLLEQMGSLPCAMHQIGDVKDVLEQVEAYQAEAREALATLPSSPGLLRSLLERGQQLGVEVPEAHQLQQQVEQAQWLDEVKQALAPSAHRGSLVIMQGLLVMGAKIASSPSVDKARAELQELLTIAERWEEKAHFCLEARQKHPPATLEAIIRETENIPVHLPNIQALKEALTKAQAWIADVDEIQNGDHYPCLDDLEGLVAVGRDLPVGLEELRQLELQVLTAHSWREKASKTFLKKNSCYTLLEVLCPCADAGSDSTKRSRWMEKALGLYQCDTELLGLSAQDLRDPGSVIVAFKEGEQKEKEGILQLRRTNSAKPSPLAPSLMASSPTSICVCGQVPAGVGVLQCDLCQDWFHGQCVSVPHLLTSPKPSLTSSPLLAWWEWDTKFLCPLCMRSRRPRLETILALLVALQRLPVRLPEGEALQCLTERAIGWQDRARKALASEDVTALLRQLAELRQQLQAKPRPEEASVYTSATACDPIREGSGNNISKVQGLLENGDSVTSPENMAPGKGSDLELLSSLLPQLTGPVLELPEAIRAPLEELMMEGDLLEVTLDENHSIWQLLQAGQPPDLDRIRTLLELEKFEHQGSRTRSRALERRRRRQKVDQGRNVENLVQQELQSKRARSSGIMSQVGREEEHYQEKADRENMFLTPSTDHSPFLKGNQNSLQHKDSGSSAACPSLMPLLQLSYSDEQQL
UniProt P50748: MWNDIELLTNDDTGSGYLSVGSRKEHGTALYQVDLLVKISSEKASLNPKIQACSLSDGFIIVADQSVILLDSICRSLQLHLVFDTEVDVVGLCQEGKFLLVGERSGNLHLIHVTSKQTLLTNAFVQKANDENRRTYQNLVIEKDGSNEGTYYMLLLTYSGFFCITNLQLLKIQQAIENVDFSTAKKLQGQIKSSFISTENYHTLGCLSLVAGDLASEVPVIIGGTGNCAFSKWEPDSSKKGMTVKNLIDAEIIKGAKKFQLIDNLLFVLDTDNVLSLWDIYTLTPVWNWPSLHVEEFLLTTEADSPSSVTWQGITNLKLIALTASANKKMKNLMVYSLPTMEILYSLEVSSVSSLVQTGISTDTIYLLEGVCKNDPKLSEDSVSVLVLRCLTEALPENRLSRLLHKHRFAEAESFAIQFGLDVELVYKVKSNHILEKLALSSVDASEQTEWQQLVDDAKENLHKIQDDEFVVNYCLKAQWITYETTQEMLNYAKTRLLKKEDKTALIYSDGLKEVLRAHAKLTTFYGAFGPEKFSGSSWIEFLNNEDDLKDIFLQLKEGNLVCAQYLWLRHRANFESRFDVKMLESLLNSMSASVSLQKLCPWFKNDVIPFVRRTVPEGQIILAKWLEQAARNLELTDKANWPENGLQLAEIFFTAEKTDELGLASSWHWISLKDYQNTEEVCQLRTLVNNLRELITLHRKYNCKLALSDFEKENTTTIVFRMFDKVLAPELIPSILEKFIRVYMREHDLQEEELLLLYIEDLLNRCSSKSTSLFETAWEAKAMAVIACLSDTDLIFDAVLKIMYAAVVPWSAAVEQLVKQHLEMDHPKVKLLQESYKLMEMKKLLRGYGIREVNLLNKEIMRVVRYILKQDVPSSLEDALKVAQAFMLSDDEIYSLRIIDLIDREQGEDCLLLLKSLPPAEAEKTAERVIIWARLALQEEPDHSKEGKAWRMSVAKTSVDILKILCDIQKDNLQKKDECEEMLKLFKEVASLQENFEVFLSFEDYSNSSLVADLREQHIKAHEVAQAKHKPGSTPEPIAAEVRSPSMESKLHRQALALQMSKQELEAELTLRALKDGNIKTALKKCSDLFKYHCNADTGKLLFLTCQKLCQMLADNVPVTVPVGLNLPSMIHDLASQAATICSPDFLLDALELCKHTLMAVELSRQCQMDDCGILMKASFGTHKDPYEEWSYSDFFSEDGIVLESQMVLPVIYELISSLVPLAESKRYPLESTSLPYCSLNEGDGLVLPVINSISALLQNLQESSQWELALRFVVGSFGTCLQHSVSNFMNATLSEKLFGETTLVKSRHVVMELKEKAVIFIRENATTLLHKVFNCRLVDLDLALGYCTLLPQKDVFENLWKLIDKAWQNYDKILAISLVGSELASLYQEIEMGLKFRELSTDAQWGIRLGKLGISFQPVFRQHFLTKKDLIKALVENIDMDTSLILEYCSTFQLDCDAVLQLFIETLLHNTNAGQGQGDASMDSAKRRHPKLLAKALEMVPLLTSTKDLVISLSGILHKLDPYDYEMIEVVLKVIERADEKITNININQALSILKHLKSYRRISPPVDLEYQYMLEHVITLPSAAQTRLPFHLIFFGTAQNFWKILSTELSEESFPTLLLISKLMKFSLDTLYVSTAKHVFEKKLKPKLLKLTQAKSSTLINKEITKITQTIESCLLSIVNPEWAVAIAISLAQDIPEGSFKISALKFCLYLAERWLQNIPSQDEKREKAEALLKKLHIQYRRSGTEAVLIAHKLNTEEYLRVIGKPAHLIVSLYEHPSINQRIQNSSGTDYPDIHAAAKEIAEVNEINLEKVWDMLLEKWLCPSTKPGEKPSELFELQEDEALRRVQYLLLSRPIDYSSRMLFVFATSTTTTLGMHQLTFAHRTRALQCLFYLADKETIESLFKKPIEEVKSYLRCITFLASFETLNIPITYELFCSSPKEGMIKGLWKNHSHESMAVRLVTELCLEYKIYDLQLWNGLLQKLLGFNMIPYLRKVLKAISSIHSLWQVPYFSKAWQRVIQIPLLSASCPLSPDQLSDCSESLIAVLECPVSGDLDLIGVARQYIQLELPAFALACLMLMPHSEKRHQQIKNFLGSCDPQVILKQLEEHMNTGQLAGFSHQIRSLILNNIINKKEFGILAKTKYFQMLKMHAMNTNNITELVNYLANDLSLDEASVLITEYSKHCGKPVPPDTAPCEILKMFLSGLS
UniProt Q9H1H9: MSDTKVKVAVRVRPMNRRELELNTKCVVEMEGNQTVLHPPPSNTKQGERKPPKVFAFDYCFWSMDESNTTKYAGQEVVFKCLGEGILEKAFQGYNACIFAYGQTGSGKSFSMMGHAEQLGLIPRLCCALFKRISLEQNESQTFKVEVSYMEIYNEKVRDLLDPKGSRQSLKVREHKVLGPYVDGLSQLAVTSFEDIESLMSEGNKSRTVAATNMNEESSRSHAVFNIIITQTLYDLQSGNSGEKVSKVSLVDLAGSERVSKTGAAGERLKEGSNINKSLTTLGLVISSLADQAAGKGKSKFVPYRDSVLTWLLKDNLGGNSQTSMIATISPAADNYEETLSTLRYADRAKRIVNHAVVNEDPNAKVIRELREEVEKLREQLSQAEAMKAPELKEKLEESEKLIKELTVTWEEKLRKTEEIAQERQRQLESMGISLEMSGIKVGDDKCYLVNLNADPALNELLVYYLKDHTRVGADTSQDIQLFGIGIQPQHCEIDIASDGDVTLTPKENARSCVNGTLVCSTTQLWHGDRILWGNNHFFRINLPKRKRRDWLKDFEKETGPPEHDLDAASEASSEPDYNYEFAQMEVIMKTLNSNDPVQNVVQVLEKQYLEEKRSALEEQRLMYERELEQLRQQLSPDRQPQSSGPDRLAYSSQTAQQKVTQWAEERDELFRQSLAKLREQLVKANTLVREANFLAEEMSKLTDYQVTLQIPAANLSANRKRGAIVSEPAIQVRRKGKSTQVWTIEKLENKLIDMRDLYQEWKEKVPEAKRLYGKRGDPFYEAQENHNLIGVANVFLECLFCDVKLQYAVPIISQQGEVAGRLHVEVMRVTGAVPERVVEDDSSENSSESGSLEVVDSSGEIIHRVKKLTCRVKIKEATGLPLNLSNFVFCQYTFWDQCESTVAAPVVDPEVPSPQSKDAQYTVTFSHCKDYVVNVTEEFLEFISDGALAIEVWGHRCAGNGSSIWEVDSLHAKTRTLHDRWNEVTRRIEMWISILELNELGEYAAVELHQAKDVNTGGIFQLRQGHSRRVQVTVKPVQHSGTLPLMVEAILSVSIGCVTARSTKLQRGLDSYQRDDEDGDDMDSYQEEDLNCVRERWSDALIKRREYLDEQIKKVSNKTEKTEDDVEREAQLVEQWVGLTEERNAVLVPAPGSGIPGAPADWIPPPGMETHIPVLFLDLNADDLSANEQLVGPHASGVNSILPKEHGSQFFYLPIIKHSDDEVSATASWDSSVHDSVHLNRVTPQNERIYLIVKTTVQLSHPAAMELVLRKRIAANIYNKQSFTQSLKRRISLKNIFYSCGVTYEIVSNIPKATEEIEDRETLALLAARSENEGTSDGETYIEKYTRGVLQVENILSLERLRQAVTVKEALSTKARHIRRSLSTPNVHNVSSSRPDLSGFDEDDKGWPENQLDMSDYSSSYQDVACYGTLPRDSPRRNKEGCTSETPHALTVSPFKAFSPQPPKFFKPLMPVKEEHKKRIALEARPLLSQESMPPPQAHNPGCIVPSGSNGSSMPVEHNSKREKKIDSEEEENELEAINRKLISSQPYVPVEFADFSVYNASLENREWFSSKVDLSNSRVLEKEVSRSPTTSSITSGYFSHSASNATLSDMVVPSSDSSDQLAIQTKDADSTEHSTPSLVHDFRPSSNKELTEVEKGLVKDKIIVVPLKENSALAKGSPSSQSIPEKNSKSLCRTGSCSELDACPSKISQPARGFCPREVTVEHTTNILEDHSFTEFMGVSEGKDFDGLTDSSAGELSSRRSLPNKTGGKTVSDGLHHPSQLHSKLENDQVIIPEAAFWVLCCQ
UniProt Q9NXV2: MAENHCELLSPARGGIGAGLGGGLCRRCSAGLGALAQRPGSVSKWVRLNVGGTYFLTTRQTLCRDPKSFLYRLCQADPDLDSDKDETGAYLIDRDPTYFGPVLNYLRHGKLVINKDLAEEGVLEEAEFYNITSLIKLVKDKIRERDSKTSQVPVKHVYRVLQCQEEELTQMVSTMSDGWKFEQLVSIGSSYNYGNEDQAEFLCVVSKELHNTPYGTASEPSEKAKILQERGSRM

How the values were obtained:
Experiment in all cases: log2 fold change, soluble protein after heating vs DMSO (PISA); higher = thermal stabilisation; K562 cells, 10 uM, 30 min; active = over 0.2 and 3.5 SD of the protein, either way, in both replicates (recomputed)
[1] = compound: COC1=CC=C(C=C1)CN2C=CC3=C2C=C(C=C3)C(=O)NO
How it was run: (§1)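 Soluble protein was quantified by TMTpro 16plex LC-MS/MS after channel sums were equalised. It was obtained as the supernatant after 21,000xg for 90 min from pooled aliquots of K562 cells (2×10^6 cells/mL, 10 μM compound, 30 min) heated for 3 min across 48°C-58°C and extracted in PBS with 0.5% NP-40 at 4°C. Thermal stability values are relative to control samples and come from duplicates. They are given as log2 fold changes.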

[2] = compound: CON(C)C(=O)N1N=C(c2cc(F)ccc2F)S[C@@]1(CCCN)c1ccccc1 [filanesib]
How it was run: as §1

[3] = compound: CO[C@H]1C[C@@H]2CC[C@@H](C)[C@@](O)(O2)C(=O)C(=O)N2CCCC[C@H]2C(=O)O[C@H]([C@H](C)C[C@@H]2CC[C@H](n3cnnn3)[C@H](OC)C2)CC(=O)[C@H](C)/C=C(\C)[C@@H](O)[C@@H](OC)C(=O)[C@H](C)C[C@H](C)/C=C/C=C/C=C/1C [zotarolimus]
How it was run: as §1

[4] = compound: COc1cc(C(=O)O)ccc1NC(=O)[C@@H]1N[C@@H](CC(C)(C)C)[C@](C#N)(c2ccc(Cl)cc2F)[C@H]1c1cccc(Cl)c1F [idasanutlin]
How it was run: as §1

[5] = compound: COc1cc(Nc2ncc3c(n2)-c2ccc(Cl)cc2C(c2c(F)cccc2OC)=NC3)ccc1C(=O)O [alisertib]
How it was run: as §1

[6] = compound: COc1cc2nc(-c3cc(F)ccc3O)nc(N[C@@H]3CNC[C@H]3C(C)(C)O)c2cc1OC
How it was run: as §1

[7] = compound: COc1cc2ncnc(Nc3ccc(F)c(Cl)c3)c2cc1OCCCN1CCOCC1 [gefitinib]
How it was run: as §1

[8] = compound: COc1cccc2cc(-c3nc([C@H]4CC[C@H](C(=O)O)CC4)n4ncnc(N)c34)[nH]c12
How it was run: as §1

[9] = compound: CS(=O)(=O)CCNCc1ccc(-c2ccc3ncnc(Nc4ccc(OCc5cccc(F)c5)c(Cl)c4)c3c2)o1 [lapatinib]
How it was run: as §1

[10] = compound: CS(=O)(=O)N1CCN(Cc2cc3nc(-c4cccc5[nH]ncc45)nc(N4CCOCC4)c3s2)CC1 [pictilisib]
How it was run: as §1

[11] = compound: CS(=O)(=O)c1ccc(-c2cnc(N)c(C(=O)Nc3ccccc3)n2)cc1
How it was run: as §1

[12] = compound: C[C@@H](Oc1cc(-c2cnn(C3CCNCC3)c2)cnc1N)c1c(Cl)ccc(F)c1Cl [crizotinib]
How it was run: as §1

[13] = compound: C[C@@H]1COCCN1C2=NC(=NC(=C2)C3(CC3)S(=O)(=O)C)C4=C5C=CNC5=CC=C4
How it was run: as §1

[14] = compound: C[C@H](C1=CC=C(C=C1)C(=O)NC2=C3C=CNC3=NC=C2)N
How it was run: as §1

[15] = compound: Cc1cc(Nc2cc(CN3CCOCC3)c3nc(C)c(Cc4ccc(Cl)cc4F)n3n2)n[nH]1 [gandotinib]
How it was run: as §1

[16] = compound: Cc1cc(SCc2sc(-c3ccc(C(F)(F)F)cc3)nc2C)ccc1OCC(=O)O
How it was run: as §1

[17] = compound: Cc1ccc(-n2nc(C(C)(C)C)cc2NC(=O)Nc2ccc(OCCN3CCOCC3)c3ccccc23)cc1 [doramapimod]
How it was run: as §1

[18] = compound: Cc1ccc(C(=O)N(CCCN)[C@@H](c2nc3cc(Cl)ccc3c(=O)n2Cc2ccccc2)C(C)C)cc1 [ispinesib]
How it was run: as §1

[19] = compound: C[C@H](Nc1ncnc2nc[nH]c12)c1cc2cccc(Cl)c2c(=O)n1-c1ccccc1 [duvelisib]
How it was run: as §1

[20] = compound: Cc1cc(Nc2cc(N3CCN(C)CC3)nc(Sc3ccc(NC(=O)C4CC4)cc3)n2)n[nH]1 [tozasertib]
How it was run: as §1

Row | Target | log2 fold change [1] | log2 fold change [2] | log2 fold change [3] | log2 fold change [4] | log2 fold change [5] | log2 fold change [6] | log2 fold change [7] | log2 fold change [8] | log2 fold change [9] | log2 fold change [10] | log2 fold change [11] | log2 fold change [12] | log2 fold change [13] | log2 fold change [14] | log2 fold change [15] | log2 fold change [16] | log2 fold change [17] | log2 fold change [18] | log2 fold change [19] | log2 fold change [20]
1 | KPNA1 (UniProt P52294) | inactive: -0.115 | inactive: 0.072 | inactive: 0.065 | inactive: 0.019 | inactive: 0.078 | inactive: 0.083 | inactive: 0.011 | inactive: -0.042 | inactive: 0.01 | inactive: 0.094 | inactive: -0.021 | inactive: -0.169 | inactive: -0.029 | inactive: 0.084 | inactive: 0.01 | inactive: -0.008 | inactive: 0.062 | inactive: -0.012 | – | –
2 | KIAA1143 (UniProt Q96AT1) | inactive: -0.052 | inactive: 0.088 | inactive: -0.074 | inactive: 0.047 | inactive: -0.103 | inactive: 0.056 | inactive: 0.003 | inactive: 0.095 | inactive: -0.038 | inactive: -0.052 | inactive: 0.079 | inactive: 0.082 | inactive: -0.105 | inactive: 0.075 | inactive: 0.118 | inactive: -0.081 | inactive: -0.034 | inactive: 0.008 | inactive: 0.04 | inactive: -0.05
3 | KIFBP (UniProt Q96EK5) | inactive: 0.058 | inactive: -0.095 | inactive: 0.074 | inactive: -0.09 | inactive: 0.106 | inactive: -0.028 | inactive: 0.01 | inactive: 0.01 | inactive: -0.049 | inactive: -0.071 | inactive: -0.036 | inactive: -0.025 | inactive: 0.079 | inactive: 0.08 | inactive: -0.051 | inactive: 0.085 | inactive: -0.053 | inactive: -0.139 | – | –
4 | KIF11 (UniProt P52732) | inactive: -0.004 | active: 1.1 | inactive: 0.074 | inactive: 0.026 | inactive: 0.011 | inactive: 0.043 | inactive: -0.002 | inactive: -0.063 | inactive: -0.018 | inactive: 0.046 | inactive: 0.034 | inactive: -0.091 | inactive: -0.029 | inactive: 0.207 | inactive: -0.018 | inactive: 0.19 | inactive: 0.13 | active: 0.761 | – | –
5 | KPNA2 (UniProt P52292) | inactive: -0.008 | inactive: 0.434 | inactive: 0.028 | inactive: 0.314 | inactive: -0.139 | inactive: -0.031 | inactive: 0.003 | inactive: -0.175 | inactive: 0.11 | inactive: 0.035 | inactive: 0.085 | inactive: -0.068 | inactive: -0.285 | inactive: 0.357 | inactive: -0.011 | inactive: 0.106 | inactive: 0.302 | inactive: -0.29 | inactive: -0.152 | inactive: -0.019
6 | KLHDC4 (UniProt Q8TBB5) | inactive: -0.045 | active: 0.435 | inactive: 0.044 | inactive: 0.199 | inactive: -0.023 | inactive: 0.076 | inactive: 0.03 | inactive: 0.1 | inactive: -0.026 | inactive: 0.029 | inactive: 0.093 | inactive: 0.157 | inactive: -0.07 | inactive: 0.111 | inactive: 0.041 | inactive: 0.039 | inactive: 0.069 | inactive: 0 | – | –
7 | KEL (UniProt P23276) | inactive: -0.042 | inactive: 0.034 | inactive: -0.043 | inactive: 0.055 | inactive: 0.177 | inactive: -0.015 | inactive: 0.07 | inactive: 0.176 | inactive: -0.078 | inactive: 0.194 | inactive: 0.002 | inactive: 0.084 | inactive: -0.048 | inactive: -0.07 | inactive: -0.341 | inactive: 0.019 | inactive: 0.028 | inactive: 0.047 | – | –
8 | KRAS isoform 2 (UniProt P01116) | inactive: 0.01 | inactive: 0.005 | inactive: -0.033 | inactive: 0.099 | inactive: 0.029 | inactive: 0.037 | inactive: 0.015 | inactive: 0.033 | inactive: -0.009 | inactive: 0.046 | inactive: 0.03 | inactive: 0.024 | inactive: -0.016 | inactive: 0.019 | inactive: -0.05 | inactive: -0.018 | inactive: -0.019 | inactive: -0.09 | – | –
9 | KCNAB2 (UniProt Q13303) | inactive: -0.055 | inactive: 0.044 | inactive: 0.007 | inactive: -0.088 | inactive: -0.082 | inactive: 0.026 | inactive: -0.03 | inactive: 0.092 | inactive: 0.002 | inactive: 0.08 | inactive: 0.008 | inactive: 0.035 | inactive: 0.021 | inactive: 0.018 | inactive: -0.045 | inactive: 0.003 | inactive: -0.06 | inactive: -0.01 | inactive: 0.009 | inactive: 0.031
10 | KDM5D isoform 3 (UniProt Q9BY66) | active: -0.592 | inactive: 0.073 | inactive: -0.053 | inactive: -0.058 | inactive: -0.044 | inactive: 0.045 | inactive: -0.021 | inactive: -0.072 | inactive: -0.047 | inactive: 0.049 | inactive: -0.004 | inactive: 0.038 | inactive: -0.005 | inactive: -0.054 | inactive: -0.051 | inactive: 0.125 | inactive: 0.108 | inactive: 0 | – | –
11 | KPNB1 (UniProt Q14974) | inactive: 0.033 | inactive: -0.024 | inactive: 0.052 | inactive: -0.048 | inactive: -0.07 | inactive: -0.065 | inactive: -0.063 | inactive: -0.076 | inactive: -0.001 | inactive: -0.032 | inactive: -0.027 | inactive: -0.201 | inactive: -0.038 | inactive: 0.047 | inactive: -0.09 | inactive: 0.083 | inactive: 0.026 | inactive: -0.225 | – | –
12 | KNTC1 (UniProt P50748) | inactive: 0.03 | inactive: -0.008 | inactive: 0 | inactive: -0.082 | inactive: -0.035 | inactive: 0.036 | inactive: 0.175 | inactive: -0.037 | inactive: 0.008 | inactive: 0.007 | inactive: 0.038 | inactive: -0.178 | inactive: -0.002 | inactive: 0.045 | inactive: -0.162 | inactive: 0.012 | inactive: -0.01 | inactive: -0.086 | – | –
13 | KHDC4 (UniProt Q7Z7F0) | inactive: 0.14 | inactive: -0.025 | inactive: 0.035 | inactive: -0.043 | inactive: -0.003 | inactive: 0.025 | inactive: 0.015 | inactive: -0.026 | inactive: -0.025 | inactive: -0.028 | inactive: 0.045 | inactive: -0.091 | inactive: 0 | inactive: -0.074 | inactive: -0.052 | inactive: 0.207 | inactive: -0.054 | inactive: 0.027 | – | –
14 | KHDRBS1 (UniProt Q07666) | inactive: 0.06 | inactive: 0.041 | inactive: -0.012 | inactive: 0.002 | inactive: 0.014 | inactive: 0.129 | inactive: 0.026 | inactive: 0.008 | inactive: -0.072 | inactive: -0.072 | inactive: -0.091 | inactive: -0.02 | inactive: -0.06 | inactive: -0.019 | inactive: 0.07 | inactive: 0.038 | inactive: -0.027 | inactive: 0.011 | – | –
15 | KIF13A (UniProt Q9H1H9) | inactive: 0.003 | inactive: 0.01 | inactive: -0.057 | inactive: -0.022 | inactive: -0.022 | inactive: 0.037 | inactive: 0.194 | inactive: 0.139 | inactive: -0.012 | inactive: -0.097 | inactive: 0.018 | inactive: 0.058 | inactive: 0.112 | inactive: 0.072 | active: -0.384 | inactive: -0.009 | inactive: -0.011 | inactive: -0.003 | – | –
16 | KCTD5 (UniProt Q9NXV2) | inactive: 0.25 | inactive: 0.138 | inactive: -0.067 | inactive: 0.028 | inactive: -0.114 | inactive: 0.078 | inactive: 0.023 | inactive: 0.012 | inactive: -0.003 | inactive: 0.14 | inactive: 0.028 | inactive: 0.056 | inactive: -0.031 | inactive: 0.042 | inactive: 0.11 | inactive: -0.014 | inactive: -0.019 | inactive: 0.149 | inactive: 0.071 | inactive: -0.023
17 | KHSRP (UniProt Q92945) | inactive: -0.055 | inactive: -0.022 | inactive: -0.033 | inactive: -0.011 | inactive: -0.049 | inactive: 0.03 | inactive: 0.014 | inactive: 0.066 | inactive: -0.042 | inactive: 0.009 | inactive: -0.015 | inactive: 0.011 | inactive: 0.016 | inactive: -0.018 | inactive: -0.021 | inactive: -0.028 | inactive: -0.006 | inactive: -0.016 | inactive: 0.009 | inactive: -0.029

Entries 12 through 13 from above:
Row | Target | log2 fold change [1] | log2 fold change [2] | log2 fold change [3] | log2 fold change [4] | log2 fold change [5] | log2 fold change [6] | log2 fold change [7] | log2 fold change [8] | log2 fold change [9] | log2 fold change [10] | log2 fold change [11] | log2 fold change [12] | log2 fold change [13] | log2 fold change [14] | log2 fold change [15] | log2 fold change [16] | log2 fold change [17] | log2 fold change [18] | log2 fold change [19] | log2 fold change [20]
12 | KNTC1 (UniProt P50748) | inactive: 0.03 | inactive: -0.008 | inactive: 0 | inactive: -0.082 | inactive: -0.035 | inactive: 0.036 | inactive: 0.175 | inactive: -0.037 | inactive: 0.008 | inactive: 0.007 | inactive: 0.038 | inactive: -0.178 | inactive: -0.002 | inactive: 0.045 | inactive: -0.162 | inactive: 0.012 | inactive: -0.01 | inactive: -0.086 | – | –
13 | KHDC4 (UniProt Q7Z7F0) | inactive: 0.14 | inactive: -0.025 | inactive: 0.035 | inactive: -0.043 | inactive: -0.003 | inactive: 0.025 | inactive: 0.015 | inactive: -0.026 | inactive: -0.025 | inactive: -0.028 | inactive: 0.045 | inactive: -0.091 | inactive: 0 | inactive: -0.074 | inactive: -0.052 | inactive: 0.207 | inactive: -0.054 | inactive: 0.027 | – | –
